Measurements from article PMC4637037.
For at least one entry, the source does not settle the construct or the ends of the probe. For part of these data: The comparison behind a weaker result is the experiment's own reference, which may not be listed here. Tags and fusion partners may be left off the protein sequences shown. For part of these data: Where cells or extracts were used, other partners may take part.

What was measured:
[1] = target: T1, GP73 in tumor cell lines (Western blot) (UniProt Q8NBJ4); test: aptamer Western blot; conditions: biotin-A10-2 5 ng/uL used as primary probe on tumor cell lines; 20 mM HEPES, 120 mM NaCl, 5 mM KCl, 1 mM CaCl2, 1 mM MgCl2, pH 7.3, 37 C, 2 h; plates blocked with 3% BSA; washes with binding buffer; protein in an extract; single-stranded DNA
T1 sequence (looked up, limits assumed): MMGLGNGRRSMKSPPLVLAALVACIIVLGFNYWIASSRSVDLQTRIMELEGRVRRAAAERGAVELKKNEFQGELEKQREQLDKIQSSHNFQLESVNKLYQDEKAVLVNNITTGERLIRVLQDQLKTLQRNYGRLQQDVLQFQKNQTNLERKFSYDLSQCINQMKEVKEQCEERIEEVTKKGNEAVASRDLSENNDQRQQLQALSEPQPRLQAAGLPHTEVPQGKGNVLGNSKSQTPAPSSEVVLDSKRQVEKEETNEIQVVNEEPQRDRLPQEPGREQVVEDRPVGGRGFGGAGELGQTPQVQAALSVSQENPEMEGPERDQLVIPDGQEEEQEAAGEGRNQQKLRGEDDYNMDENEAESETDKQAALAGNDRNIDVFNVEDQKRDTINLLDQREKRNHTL

[2] = target: T2, GP73 (Golgi protein 73) (Homo sapiens) (UniProt Q8NBJ4); test: competition (ELASA, antibody blocking); conditions: anti-GP73 antibody 0.03125-1 ug/mL preincubated, binding falls with antibody concentration; 20 mM HEPES, 120 mM NaCl, 5 mM KCl, 1 mM CaCl2, 1 mM MgCl2, pH 7.3, 37 C, 2 h; plates blocked with 3% BSA; washes with binding buffer; recombinant protein; single-stranded DNA
T2 sequence (looked up, limits assumed): T1 sequence (looked up, limits assumed)

[3] = target: T2, GP73 (Golgi protein 73) (Homo sapiens); test: ELASA (plate-immobilized GP73, anti-Dig-ALP); conditions: 1 mM Mg2+, 1 mM Ca2+, GP73 coated at 0.5, 1 and 2 ug/mL; 20 mM HEPES, 120 mM NaCl, 5 mM KCl, 1 mM CaCl2, 1 mM MgCl2, pH 7.3, 37 C, 2 h; plates blocked with 3% BSA; washes with binding buffer; recombinant protein; single-stranded DNA

Sequence: ACGCTCGGATGCCACTACAGTTGGTTTTTTTTTGTTATTTAGAGTAAAAACCTTGTGTGTAGTGACTCATGGACGTGCTGGTGAC [A10-2 biotin]
- binding result [1]: binds

Sequence: ACGCTCGGATGCCACTACAGTTGGTTTTTTTTTGTTATTTAGAGTAAAAACCTTGTGTGTAGTGACTCATGGACGTGCTGGTGAC [A10-2]
- binding result [2]: binds more weakly
- Kd [3]: 0.127 µM
